These are yes or no findings as the source states them, for the method shown. In cells and extracts the contact can be indirect. Here binding means that the protein was enriched with, or labelled near, the bait; the list need not be complete. Where a sequence is shown, tags or fusion partners need not be part of it.
Biological target: T1, Flag-HA-NONO (UniProt Q99K48)
T1 sequence: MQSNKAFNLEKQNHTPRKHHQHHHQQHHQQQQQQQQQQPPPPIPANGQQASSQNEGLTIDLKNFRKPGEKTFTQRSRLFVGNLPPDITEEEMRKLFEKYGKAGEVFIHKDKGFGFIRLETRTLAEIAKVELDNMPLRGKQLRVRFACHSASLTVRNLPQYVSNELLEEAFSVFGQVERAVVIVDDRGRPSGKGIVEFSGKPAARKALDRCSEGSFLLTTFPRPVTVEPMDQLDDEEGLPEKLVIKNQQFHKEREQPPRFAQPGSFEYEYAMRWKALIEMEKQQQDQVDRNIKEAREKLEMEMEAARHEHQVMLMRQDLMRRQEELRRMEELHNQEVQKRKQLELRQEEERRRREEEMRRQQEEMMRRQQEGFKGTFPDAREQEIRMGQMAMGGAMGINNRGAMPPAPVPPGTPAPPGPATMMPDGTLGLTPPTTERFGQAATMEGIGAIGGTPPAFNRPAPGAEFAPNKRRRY
Test: affinity purification with mass spectrometry; tandem affinity purification (Flag beads and HA beads) of the NONO complex from nuclear extracts of mESCs stably expressing Flag-HA-Nono; MS/MS

Sequences of proteins named here, by UniProt entry; tags and fusion partners are left off.
UniProt Q3URK3: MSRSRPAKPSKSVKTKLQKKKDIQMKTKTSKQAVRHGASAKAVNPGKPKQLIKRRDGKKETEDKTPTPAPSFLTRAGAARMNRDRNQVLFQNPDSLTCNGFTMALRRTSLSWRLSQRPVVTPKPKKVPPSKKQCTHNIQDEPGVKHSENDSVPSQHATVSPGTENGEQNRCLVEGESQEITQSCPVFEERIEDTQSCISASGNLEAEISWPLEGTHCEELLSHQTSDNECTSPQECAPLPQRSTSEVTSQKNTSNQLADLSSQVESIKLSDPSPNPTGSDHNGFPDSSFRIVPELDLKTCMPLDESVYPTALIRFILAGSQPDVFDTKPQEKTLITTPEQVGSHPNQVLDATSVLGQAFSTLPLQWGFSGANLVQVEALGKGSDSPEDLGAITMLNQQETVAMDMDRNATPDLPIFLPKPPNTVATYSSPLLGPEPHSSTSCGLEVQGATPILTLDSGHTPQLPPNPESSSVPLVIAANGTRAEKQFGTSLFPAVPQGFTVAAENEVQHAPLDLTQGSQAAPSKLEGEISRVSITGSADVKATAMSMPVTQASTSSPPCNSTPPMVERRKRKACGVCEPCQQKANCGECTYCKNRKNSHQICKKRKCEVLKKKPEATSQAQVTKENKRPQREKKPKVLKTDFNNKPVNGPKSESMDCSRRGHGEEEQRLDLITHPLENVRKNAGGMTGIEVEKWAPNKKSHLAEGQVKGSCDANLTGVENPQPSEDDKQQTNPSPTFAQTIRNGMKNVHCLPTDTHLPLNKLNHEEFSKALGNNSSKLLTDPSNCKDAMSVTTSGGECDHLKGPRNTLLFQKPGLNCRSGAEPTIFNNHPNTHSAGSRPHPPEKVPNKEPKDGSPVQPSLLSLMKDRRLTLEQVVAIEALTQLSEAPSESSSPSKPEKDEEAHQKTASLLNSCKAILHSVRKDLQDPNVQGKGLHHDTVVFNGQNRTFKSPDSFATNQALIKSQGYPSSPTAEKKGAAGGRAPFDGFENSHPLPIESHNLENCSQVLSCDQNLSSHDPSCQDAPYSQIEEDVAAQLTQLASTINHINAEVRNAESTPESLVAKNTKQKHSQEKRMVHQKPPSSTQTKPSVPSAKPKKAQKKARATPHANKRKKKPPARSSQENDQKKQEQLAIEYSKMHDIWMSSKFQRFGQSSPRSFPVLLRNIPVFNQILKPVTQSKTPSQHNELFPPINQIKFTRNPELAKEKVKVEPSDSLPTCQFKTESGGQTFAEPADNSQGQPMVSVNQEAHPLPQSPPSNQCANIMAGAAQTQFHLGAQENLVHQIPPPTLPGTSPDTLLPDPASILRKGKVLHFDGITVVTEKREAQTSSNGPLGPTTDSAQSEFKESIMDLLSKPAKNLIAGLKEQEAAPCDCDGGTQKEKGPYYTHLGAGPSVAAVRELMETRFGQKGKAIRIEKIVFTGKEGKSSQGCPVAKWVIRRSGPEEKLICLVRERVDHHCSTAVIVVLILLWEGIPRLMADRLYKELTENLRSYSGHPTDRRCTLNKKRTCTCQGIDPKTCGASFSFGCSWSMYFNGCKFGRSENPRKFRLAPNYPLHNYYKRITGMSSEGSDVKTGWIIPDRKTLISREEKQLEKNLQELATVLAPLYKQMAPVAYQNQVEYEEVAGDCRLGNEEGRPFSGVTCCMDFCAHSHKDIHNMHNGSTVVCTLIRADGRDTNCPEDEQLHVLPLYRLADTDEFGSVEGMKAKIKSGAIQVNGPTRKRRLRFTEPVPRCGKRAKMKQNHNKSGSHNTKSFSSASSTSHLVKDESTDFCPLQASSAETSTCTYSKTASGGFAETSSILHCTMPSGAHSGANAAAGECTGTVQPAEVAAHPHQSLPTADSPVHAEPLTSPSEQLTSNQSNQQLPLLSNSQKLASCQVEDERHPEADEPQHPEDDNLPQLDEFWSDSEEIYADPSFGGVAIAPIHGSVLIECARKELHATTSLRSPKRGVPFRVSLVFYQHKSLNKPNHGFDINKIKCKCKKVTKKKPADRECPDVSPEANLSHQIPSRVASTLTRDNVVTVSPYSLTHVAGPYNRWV

In the case of “Ten-Eleven Translocation 1 (TET1) (from UniProt Q3URK3 1-2039)”, the binding is reported as “binds”.

B1: OGT (protein, UniProt Q8CGY8 1-1046)
chain: MASSVGNVADSTEPTKRMLSFQGLAELAHREYQAGDFEAAERHCMQLWRQEPDNTGVLLLLSSIHFQCRRLDRSAHFSTLAIKQNPLLAEAYSNLGNVYKERGQLQEAIEHYRHALRLKPDFIDGYINLAAALVAAGDMEGAVQAYVSALQYNPDLYCVRSDLGNLLKALGRLEEAKACYLKAIETQPNFAVAWSNLGCVFNAQGEIWLAIHHFEKAVTLDPNFLDAYINLGNVLKEARIFDRAVAAYLRALSLSPNHAVVHGNLACVYYEQGLIDLAIDTYRRAIELQPHFPDAYCNLANALKEKGSVAEAEDCYNTALRLCPTHADSLNNLANIKREQGNIEEAVRLYRKALEVFPEFAAAHSNLASVLQQQGKLQEALMHYKEAIRISPTFADAYSNMGNTLKEMQDVQGALQCYTRAIQINPAFADAHSNLASIHKDSGNIPEAIASYRTALKLKPDFPDAYCNLAHCLQIVCDWTDYDERMKKLVSIVAEQLEKNRLPSVHPHHSMLYPLSHGFRKAIAERHGNLCLDKINVLHKPPYEHPKDLKLSDGRLRVGYVSSDFGNHPTSHLMQSIPGMHNPDKFEVFCYALSPDDGTNFRVKVMAEANHFIDLSQIPCNGKAADRIHQDGIHILVNMNGYTKGARNELFALRPAPIQAMWLGYPGTSGALFMDYIITDQETSPAEVAEQYSEKLAYMPHTFFIGDHANMFPHLKKKAVIDFKSNGHIYDNRIVLNGIDLKAFLDSLPDVKIVKMKCPDGGDNPDSSNTALNMPVIPMNTIAEAVIEMINRGQIQITINGFSISNGLATTQINNKAATGEEVPRTIIVTTRSQYGLPEDAIVYCNFNQLYKIDPSTLQMWANILKRVPNSVLWLLRFPAVGEPNIQQYAQNMGLPQNRIIFSPVAPKEEHVRRGQLADVCLDTPLCNGHTTGMDVLWAGTPMVTMPGETLASRVAASQLTCLGCLELIAKSRQEYEDIAVKLGTDLEYLKKIRGKVWKQRISSPLFNTKQYTMELERLYLQMWEHYAAGNKPDHMIKPVEVTESA
B1 was tested, and the binding was “binds”.

B2: PSPC1 (protein, UniProt Q8R326 1-523)
chain: MMLRGNLKQVRIEKNPARLRALESAAGESEPVAAAAMALTLAGEQAPPPAPSEEHPDEELGFTIDIKSFLKPGEKTYTQRCRLFVGNLPTDITEEDFKRLFERYGEPSEVFINRDRGFGFIRLESRTLAEIAKAELDGTILKSRPLRIRFATHGAALTVKNLSPVVSNELLEQAFSQFGPVEKAVVVVDDRGRATGKGFVEFAAKPPARKALERCGDGAFLLTTTPRPVIVEPMEQFDDEDGLPEKLMQKTQQYHKEREQPPRFAQPGTFEFEYASRWKALDEMEKQQREQVDRNIREAKEKLEAEMEAARHEHQLMLMRQDLMRRQEELRRLEELRNQELQKRKQIQLRHEEEHRRREEEMIRHREQEELRRQQEGGFKPNYMENREQEMRMGDMGPRGAINMGDAFSPAPAGTQGPPPMMGMNMNNRGTIPGPPMGPGPAMGPEGAANMGTPMIPDNGAVHNDRFPQGPPSQMGSPMGNRTGSETPQAPMSGVGPVSGGPGGFGRGSQGGNFEGPNKRRRY
For B2, the binding was “binds”.
